# In patent US12589169B2, “Compound and MRI contrast agent containing same” (KYUNGPOOK NATIONAL UNIVERSITY INDUSTRY-ACADEMIC COOPERATION …, priority 2020, dated 2026):
# Some entries share one result that the patent states for a list of compounds. For at least one compound, name, drawing or mass did not settle the structure.
# Tested on: AML12 cell line
# Experiment: in vitro cell-viability test (CCK method)
# Assay type: cell-based
# Details: AML12 cells, 24 hours, FIG. 16
# Procedure: In order to confirm the presence or absence of cytotoxicity in normal hepatocytes, Gd-suc (i.e., a compound according to an embodiment of the present invention) and Primovist and Multihance (i.e., commercially available liver contrast agents) were treated on the AML12 cell line at various concentrations, and cell viability after 24 hours was analyzed by a known CCK method, and the results are shown in FIG. 16.
SMILES,cell viability (400 μM) [%],cell viability (200 μM) [%]
CCOc1ccc(CC(CN(CCN(CC(=O)[O-])CC(=O)[O-])CC(=O)[O-])N(CC(=O)[O-])CC(=O)[O-])cc1.[Gd+3].[Na+].[Na+] (centres unmarked) [Primovist],≤ 80,
CNC[C@H](O)[C@@H](O)[C@H](O)[C@H](O)CO.CNC[C@H](O)[C@@H](O)[C@H](O)[C@H](O)CO.O=C([O-])CN(CCN(CC(=O)[O-])CC(=O)O)CCN(CC(=O)O)C(COCc1ccccc1)C(=O)[O-].[Gd+3] (centres unmarked) [Multihance],,≤ 80
